# Data published in patent publication US20090208458.
# Amino acid sequences for entries named in this document (tags omitted). A change or cut given only in a name is not applied to a line headed by its entry. Residues count along the entry.
# UniProt Q8N693, 2-406: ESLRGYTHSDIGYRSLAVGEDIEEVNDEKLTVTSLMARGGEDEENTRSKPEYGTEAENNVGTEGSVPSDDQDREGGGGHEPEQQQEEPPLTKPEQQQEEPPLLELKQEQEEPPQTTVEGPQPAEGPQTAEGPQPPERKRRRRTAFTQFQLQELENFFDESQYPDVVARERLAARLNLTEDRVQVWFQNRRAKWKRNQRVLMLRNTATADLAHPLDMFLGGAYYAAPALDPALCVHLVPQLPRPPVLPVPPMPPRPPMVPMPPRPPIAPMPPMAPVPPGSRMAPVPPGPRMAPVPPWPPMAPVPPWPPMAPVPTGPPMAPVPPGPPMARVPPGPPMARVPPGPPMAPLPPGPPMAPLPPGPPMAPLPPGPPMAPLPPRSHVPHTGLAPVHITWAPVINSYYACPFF
# What was measured:
# [1] = biological target: Myc-ESXR1 (Homo sapiens) (UniProt Q8N693); assay: activity in cells; conditions: protein in cells, protein details: N-terminal Myc (included in SEQ 3)
# [2] = biological target: Myc-ESXR1 (Homo sapiens) (UniProt Q8N693); assay: EMSA; conditions: 10 mM HEPES pH 7.5, 60 mM NaCl, 4 mM MgCl2, poly(dI-dC), on ice; result shown in figure; protein in a lysate after overexpression; protein details: N-terminal Myc (included in SEQ 3), COS-7 extract; label: 32P
# [3] = biological target: Myc-ESXR1-ΔC (Homo sapiens) (UniProt Q8N693); assay: EMSA; conditions: 10 mM HEPES pH 7.5, 60 mM NaCl, 4 mM MgCl2, poly(dI-dC), on ice; result shown in figure only; protein in a lysate after overexpression; protein details: N-terminal Myc, COS-7 extract; label: 32P
Sequence,"activity on this sequence ([1]; ESXR1-dependent luciferase repression, upstream of SV40 promoter, cell line not restated, U2-OS cells)",binding result [2],binding result [3],"activity on this sequence ([1]; luciferase reporter repression in U2-OS cells, pGL3-Promoter)"
CGCGTAAAAGGGTAAAGGACATCTTAATGTTATTATGAAAACAGTTTTGACCTCTCGCG (double strand) [Oligonucleotide 10 K-ras first intron P3 site],active,–,–,–
CGCGTAATTTGATTACGTAATTTGATTAGCTAATTTGATTACGCG (double strand) [Oligonucleotide 6 P3 probe (three P3 sites)],–,binds,binds,active

# For some of these results: Results from cells or extracts need not show a direct contact. For some of these results: The exact form of at least one protein or probe is not confirmed.
